Several values for one entry are separate records, joined by “and”; a condition that tells them apart may be missing. Equal entries are not always repeated. Part of at least one peptide drawing is inferred or uncertain, most often the ends. Ends that are not written are not given here.
System: carbohydrate overload model of acute laminitis in horses
Assay: Oligofructose (carbohydrate) overload model of acute laminitis, LTNF peptide study KLM-15-02
Format: in vivo
Set-up: key to Obel score at examination interval 42 / Obel score at examination interval 48 / Obel score at examination interval 54 / Obel score at examination interval 60 / Obel score at examination interval 66 / Obel score at examination interval 72 / Obel score at examination interval 0 / Obel score at examination interval 6 / Obel score at examination interval 12 / Obel score at examination interval 18 / Obel score at examination interval 24 / Obel score at examination interval 30 / Obel score at examination interval 36: Grade 0: No lameness observed at a walk or trot, even on hard surfaces.; Grade 1: The horse may alternately lift its feet, but no lameness is observable at a walk.; Grade 2: Moves with a stiff gait at the walk.; Grade 3: Reluctant to move at a walk on any surface.; Grade 4: The animal will not move, and is particularly reluctant to move from a soft to a hard surface
Conditions: for Obel score at examination interval 0 / Obel score at examination interval 6 / Obel score at examination interval 12 / Obel score at examination interval 18 / Obel score at examination interval 24 / Obel score at examination interval 30 / Obel score at examination interval 36 / Obel score at examination interval 42 / Obel score at examination interval 48 / Obel score at examination interval 54 / Obel score at examination interval 60 / Obel score at examination interval 66 / Obel score at examination interval 72 / Time of Euth.: individual horses; for Obel score at examination interval 0: 0 h after induction; for Obel score at examination interval 6: 6 h after induction; for Obel score at examination interval 12: 12 h after induction; for Obel score at examination interval 18: 18 h after induction; for Obel score at examination interval 24: 24 h after induction; for Obel score at examination interval 30: 30 h after induction; for Obel score at examination interval 36: 36 h after induction; for Obel score at examination interval 42: 42 h after induction; for Obel score at examination interval 48: 48 h after induction; for Obel score at examination interval 54: 54 h after induction; for Obel score at examination interval 60: 60 h after induction; for Obel score at examination interval 66: 66 h after induction; for Obel score at examination interval 72: 72 h after induction; for Time of Euth.: euthanasia at Obel 3 or at 72 h; for mean times from induction to achievement of an Obel lameness score of 3, and subsequent euthanasia: control Group One 24 to 30 hours
Experimental: This communication is a brief report on the results obtained from the recent clinical study to evaluate the potential prophylactic and/or therapeutic properties of KLM's proprietary application of a 15 amino acid sequence termed LTRF in saline when employed in a carbohydrate overload model of acute laminitis in horses.
In compliance with the methods outlined in protocol KLM-15-02, nine healthy, mature horses between 4 and 9 years of age were evaluated for enrollment in the clinical study. […] Preliminary examinations were deemed normal for all candidates. Eligible candidates underwent a formal acclimation period of 10 days, during which feed, water, housing and management were identical to conditions of the actual study. On Days −3, −2, and −1, oligofructose was added to the a.m. grain ration of each candidate at a dosage of 1 gram per kg body weight.
Prior to induction on Day 0, a baseline lameness exam was repeated and captured on video. Immediately thereafter, the carbohydrate overload model was completed by administration of 10 grams of oligofructose/kg body weight mixed with tepid water and administered by nasogastric tube. This model causes an overgrowth of Gram positive bacteria in the large bowel, consistently resulting in diarrhea, acidosis, and volume depletion. Approximately 80% or more of horses subjected to this model also develop acute laminitis within 24 to 36 hours.
Horses were ranked by decreasing magnitude of body weight. Each three consecutively-ranked horses comprised a replicate, and each horse within a replicate was allocated randomly to one of the following three treatment groups: • Group 1—intravenous administration of placebo (3 liters of 0.9% saline solution) upon the first evidence of diarrhea with or without an elevated temperature; • Group 2—intravenous administration of the LTNF 15 amino-acid sequence in saline , three doses of LTNF peptide were used/Horse No 1 received 2 grams of LTNF peptide immediately following administration of the final dose of Oligofructose/Horse No 2 received 4 grams of LTNF peptide again immediately following administration of the final dose of Oligofructose./Horse No 3 received 8 grams of LTNF peptide again immediately following administration of the final dose of Oligofructose. • Group 3—intravenous administration of the LTNF peptide in three differing doses to horses. Horse No1 received 2 grams of LTNF .Horse No 2 received 4 grams of LTNF peptide and Horse No 3 received 8 grams of LTNF peptide suspended in saline upon the first evidence of lameness, characterized as an Obel lameness score of “1” or greater.
At regular, 6-hr intervals after induction, the general health of each horse was assessed, a lameness exam was repeated, and rectal temperature was monitored. Once diarrhea had begun, each horse's hydration status was monitored at 2- to 4-hr intervals by assessing its packed cell volume (PCV; hematocrit) and plasma total protein concentration. Intravenous fluids (lactated Ringer's or 0.9% sodium chloride solution) were administered in sufficient volumes to maintain a target PCV of <40%. No other medications were administered during the test period.
Any horse that achieved an Obel lameness score of “3” was promptly and humanely euthanatized. All surviving horses, regardless of Obel score, were sacrificed at 72 hours after induction. After death, both forelimbs were removed and the hooves were sectioned and processed for recovery of blocks of laminar tissue for histopathologic examination.

[1] = Group 2 prophylaxis: LTNF 2, 4 or 8 grams i.v. immediately after final oligofructose dose
[2] = Group 3 treatment: LTNF 2, 4 or 8 grams i.v. at first Obel score 1 or greater

## LKAMDPTPPLWIKTE [LTNF peptide, Leu-Lys-Ala-Met-Asp-Pro-Thr-Pro-Pro-Leu-Trp-Ile-Lys-Thr-Glu]
Group 2 prophylactic
  lameness course: developed temporary signs of mild lameness (Obel Grade 1), but returned to normal prior to euthanasia
[1]
  Obel score at examination interval 0: 0
  Obel score at examination interval 6: 0
  Obel score at examination interval 12: 0
  Obel score at examination interval 18: 0
  Obel score at examination interval 24: 0
  Obel score at examination interval 30: 1 and 0 (2×)
  Obel score at examination interval 36: 1 (2×) and 0
  Obel score at examination interval 42: 2 (2×) and 0
  Obel score at examination interval 48: 2 (2×) and 0
  Obel score at examination interval 54: 0
  Obel score at examination interval 60: 0
  Obel score at examination interval 66: 0
  Obel score at examination interval 72: 0
Group 2 prophylaxis: LTNF 2, 4 or 8 grams i.v. in saline immediately after final oligofructose dose
  Time of Euth.: 72 h
Group 3 treatment
  lameness course of the single surviving horse: developed lameness, but was showing definite signs of recovery (Obel Grade 1) prior to euthanasia
[2]
  Obel score at examination interval 0: 0
  Obel score at examination interval 6: 0
  Obel score at examination interval 12: 0
  Obel score at examination interval 18: 0 (2×) and 1
  Obel score at examination interval 24: 1
  Obel score at examination interval 30: 2 and 1 (2×)
  Obel score at examination interval 36: 2
  Obel score at examination interval 42: 2 (2×) and 3
  Obel score at examination interval 48: 2
  Obel score at examination interval 54: 1 and 3
  Obel score at examination interval 60: 1
  Obel score at examination interval 66: 1
  Obel score at examination interval 72: 1
Group 3 treatment: LTNF 2, 4 or 8 grams i.v. in saline at first Obel score 1 or greater
  Time of Euth.: 72 h and 42 h and 54 h
Group 3 treatment, euthanatized at 42 and 54 hours post-induction
  number of horses that developed Grade 3 lameness: Two of three
Group Three treatment
  mean times from induction to achievement of an Obel lameness score of 3, and subsequent euthanasia: 42 to 72 h
Group Two prophylaxis
  mean times from induction to achievement of an Obel lameness score of 3, and subsequent euthanasia: 72 h
All six horses that received intravenous peptide
  survival compared with control horses: survived for a longer period than any of the control horses before developing a Grade 3 lameness
All six horses that received intravenous peptide in differing doses
  lameness scores compared with control horses: lower lameness scores on average than the control horses
Prophylactic group, all dose levels, histopathology confirmation outstanding
  overall result in the prophylactic group: very dramatic results
